No constants are given. Whether binding was seen depends on the method and setting. In cells and extracts the contact can be indirect. A yes stands for co-enrichment or nearness to the bait. Other partners may have been found.
B1: LETMD1 (protein, UniProt Q6P1Q0 1-360)
chain: MALSRVCWARSAVWGSAVTPGHFVTRRLQLGRSGLAWGAPRSSKLHLSPKADVKNLMSYVVTKTKAINGKYHRFLGRHFPRFYVLYTIFMKGLQMLWADAKKARRIKTNMWKHNIKFHQLPYREMEHLRQFRQDVTKCLFLGIISIPPFANYLVFLLMYLFPRQLLIRHFWTPKQQTDFLDIYHAFRKQSHPEIISYLEKVIPLISDAGLRWRLTDLCTKIQRGTHPAIHDILALRECFSNHPLGMNQLQALHVKALSRAMLLTSYLPPPLLRHRLKTHTTVIHQLDKALAKLGIGQLTAQEVKSACYLRGLNSTHIGEDRCRTWLGEWLQISCSLKEAELSLLLHNVVLLSTNYLGTRR
B2: DPPA4 (protein, UniProt Q7L190 1-304)
chain: MLRGSASSTSMEKAKGKEWTSTEKSREEDQQASNQPNSIALPGTSAKRTKEKMSIKGSKVLCPKKKAEHTDNPRPQKKIPIPPLPSKLPPVNLIHRDILRAWCQQLKLSSKGQKLDAYKRLCAFAYPNQKDFPSTAKEAKIRKSLQKKLKVEKGETSLQSSETHPPEVALPPVGEPPALENSTALLEGVNTVVVTTSAPEALLASWARISARARTPEAVESPQEASGVRWCVVHGKSLPADTDGWVHLQFHAGQAWVPEKQEGRVSALFLLPASNFPPPHLEDNMLCPKCVHRNKVLIKSLQWE
B3: PATZ1 (protein, UniProt Q9HBE1 1-687)
chain: MERVNDASCGPSGCYTYQVSRHSTEMLHNLNQQRKNGGRFCDVLLRVGDESFPAHRAVLAACSEYFESVFSAQLGDGGAADGGPADVGGATAAPGGGAGGSRELEMHTISSKVFGDILDFAYTSRIVVRLESFPELMTAAKFLLMRSVIEICQEVIKQSNVQILVPPARADIMLFRPPGTSDLGFPLDMTNGAALAANSNGIAGSMQPEEEAARAAGAAIAGQASLPVLPGVDRLPMVAGPLSPQLLTSPFPSVASSAPPLTGKRGRGRPRKANLLDSMFGSPGGLREAGILPCGLCGKVFTDANRLRQHEAQHGVTSLQLGYIDLPPPRLGENGLPISEDPDGPRKRSRTRKQVACEICGKIFRDVYHLNRHKLSHSGEKPYSCPVCGLRFKRKDRMSYHVRSHDGSVGKPYICQSCGKGFSRPDHLNGHIKQVHTSERPHKCQTCNASFATRDRLRSHLACHEDKVPCQVCGKYLRAAYMADHLKKHSEGPSNFCSICNRGFSSASYLKVHVKTHHGVPLPQVSRHQEPILNGGAAFHCARTYGNKEGQKCSHQDPIESSDSYGDLSDASDLKTPEKQSANGSFSCDMAVPKNKMESDGEKKYPCPECGSFFRSKSYLNKHIQKVHVRALGGPLGDLGPALGSPFSPQQNMSLLESFGFQIVQSAFASSLVDPEVDQQPMGPEGK
B4: SASS6 (protein, UniProt Q6UVJ0 1-657)
chain: MSQVLFHQLVPLQVKCKDCEERRVSIRMSIELQSVSNPVHRKDLVIRLTDDTDPFFLYNLVISEEDFQSLKFQQGLLVDFLAFPQKFIDLLQQCTQEHAKEIPRFLLQLVSPAAILDNSPAFLNVVETNPFKHLTHLSLKLLPGNDVEIKKFLAGCLKCSKEEKLSLMQSLDDATKQLDFTRKTLAEKKQELDKLRNEWASHTAALTNKHSQELTNEKEKALQAQVQYQQQHEQQKKDLEILHQQNIHQLQNRLSELEAANKDLTERKYKGDSTIRELKAKLSGVEEELQRTKQEVLSLRRENSTLDVECHEKEKHVNQLQTKVAVLEQEIKDKDQLVLRTKEAFDTIQEQKVVLEENGEKNQVQLGKLEATIKSLSAELLKANEIIKKLQGDLKTLMGKLKLKNTVTIQQEKLLAEKEEKLQKEQKELQDVGQSLRIKEQEVCKLQEQLEATVKKLEESKQLLKNNEKLITWLNKELNENQLVRKQDVLGPSTTPPAHSSSNTIRSGISPNLNVVDGRLTYPTCGIGYPVSSAFAFQNTFPHSISAKNTSHPGSGTKVQFNLQFTKPNASLGDVQSGATISMPCSTDKENGENVGLESKYLKKREDSIPLRGLSQNLFSNSDHQRDGTLGALHTSSKPTALPSASSAYFPGQLPNS

Chains of the proteins cited; added tags and fusions are not shown.
UniProt Q9BSM1: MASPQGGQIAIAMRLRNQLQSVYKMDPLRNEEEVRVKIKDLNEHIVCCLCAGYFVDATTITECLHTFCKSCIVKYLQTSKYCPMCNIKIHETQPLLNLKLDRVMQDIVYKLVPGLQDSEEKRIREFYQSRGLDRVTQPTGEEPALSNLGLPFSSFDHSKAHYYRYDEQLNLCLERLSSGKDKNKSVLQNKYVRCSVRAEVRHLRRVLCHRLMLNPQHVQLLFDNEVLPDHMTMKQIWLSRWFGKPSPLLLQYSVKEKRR

molecular target: PCGF1 (human (endogenous in NT2)) (UniProt Q9BSM1); test: affinity purification with mass spectrometry; endogenous immunoprecipitation (antibodies to PCGF1, BCOR, DPPA4, NANOG or OCT4) from nuclear lysate of undifferentiated NT2 cells, trypsin digest on beads, label-free mass spectrometry (Q Exactive), volcano plot against IgG beads

Row | Binder | binding
1 | B1 | binds
2 | B2 | binds
3 | B3 | binds
4 | B4 | binds
